# Assay results from the supplement of paper PMC3334620.
# Whole data set: some 33,000 sequences, median “E-score (-0.5 to 0.5)” near -0.0014, cut for the highest 2% near 0.25. This is one part of the list.
# Target: T1, Cad1 (UniProt P24813)
# T1 sequence: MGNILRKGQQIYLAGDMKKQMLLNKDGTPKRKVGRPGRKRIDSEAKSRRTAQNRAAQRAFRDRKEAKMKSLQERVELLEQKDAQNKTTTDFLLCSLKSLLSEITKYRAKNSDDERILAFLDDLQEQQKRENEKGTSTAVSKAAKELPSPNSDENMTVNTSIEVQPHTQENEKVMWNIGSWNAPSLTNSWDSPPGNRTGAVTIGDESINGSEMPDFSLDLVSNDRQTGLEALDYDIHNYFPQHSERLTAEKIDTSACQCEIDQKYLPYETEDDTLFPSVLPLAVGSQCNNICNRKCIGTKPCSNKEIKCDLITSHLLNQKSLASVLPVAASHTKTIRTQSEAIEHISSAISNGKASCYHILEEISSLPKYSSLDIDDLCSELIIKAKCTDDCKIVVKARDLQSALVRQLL
# Assay: PBM E-score (8-mer binding enrichment) (E-score (-0.5 to 0.5)); higher = stronger / more preferred TF binding
# Conditions: protein concentration: 100 nM; construct: GST-full length
# Description: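 Universal 'all 10-mer' protein binding microarrays (Agilent AMADID 015681) probed with GST-tagged S. cerevisiae TFs (full-length or DBD) made by in vitro transcription/translation (PURExpress), about 100-200 nM. Bound TF was detected with fluorescent anti-GST. Each ungapped 8-mer (which stands for itself and its reverse complement) is scored by the PBM enrichment score (E-score), a modified Wilcoxon-Mann-Whitney statistic from -0.5 to +0.5, computed with the Universal PBM Analysis Suite. Scale: above 0.35 generally sequence-specific binding.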
row,Sequence,PBM E-score
1,AGGCATTA,-0.16
2,GGCTGTAA,-0.0504
3,AAGGGTCG,-0.0629
4,CCACATCG,-0.106
5,CGGGGATA,-0.173
6,AAGTTGTA,0.168
7,TCTCTGCA,-0.155
8,TCTGAAGA,-0.194
9,AAACAACA,0.0947
10,CGATTATC,0.0317
11,ACGCCACC,-0.127
12,ATAATTTG,0.278
13,AACATTGG,-0.106
14,ACAATAAA,0.11
15,CCCGTTAA,-0.156
16,GCTCGAGA,-0.00576
17,ACGACGCT,-0.117
18,ATAGCTAC,0.0214
19,CGACGTCC,0.0445
20,AGACATCA,-0.0364
21,CAGGGTTA,-0.0267
22,ACTGTCAC,0.0448
23,AGGTGTTA,-0.0162
24,GCTTATGA,0.0282
25,GTTGTACA,0.286

# A second format for some results above.
row	Sequence	PBM E-score
8	TCTGAAGA	-0.194
9	AAACAACA	0.0947

# The results go on.

row,Sequence,PBM E-score
1,GGCCATGA,0.0245
2,GCCGTTGA,0.0928
3,ATGGCACA,-0.0327
4,CCGTTGAG,-0.00102
5,CTCTCCAA,-0.0619
6,TCTTTTAA,-0.0329
7,AAGTCTCG,-0.0541
8,CAAAAGTA,0.071
9,ACTAACTA,0.00503
10,CCGGAGGA,-0.28
11,ATGGGCTA,-0.0265
12,CCGCGGGA,0.11
13,ACCGTAAG,0.0917
14,GACCGAAA,0.0749
15,AGTTGGGC,0.0898
16,GGTTTTTA,0.0991
17,TCGTAAAA,-0.006
18,CGCTGAGC,0.0447
19,CCTACGAC,-0.0626
20,ACACGGCC,-0.0553
21,CCAACCAA,-0.162
22,ACTAGCCG,-0.138
23,CCTCTGCA,-0.0497
24,CAGCCCTC,-0.0794
25,AGGCGGTG,-0.203

row,Sequence,PBM E-score
1,CTATGGCA,-0.0669
2,TCATGCCA,-0.00285
3,ATTTAATA,0.316
4,AAATGGAA,0.0236
5,TATGAACA,0.0656
6,GCGAGGCA,-0.0231
7,AAGACGCT,-0.149
8,TTATCAAA,0.3
9,GCGCTACC,-0.0736
10,AAGAAGCA,0.0443
11,CGAGAAAA,0.0659
12,CTAATCGC,0.0731
13,CACAAAAG,0.117
14,CAGGGCTC,-0.158
15,GTGAGGTA,-0.127
16,CAGCCACC,-0.0873
17,AGTAATAT,0.346
18,CTCAGACC,-0.106
19,GATGGCAC,-0.156
20,AGTCTGAC,0.0767
21,AAAACTGA,-0.00318
22,CACGATTA,0.162
23,ATCCTTCG,-0.116
24,GGTGGGTA,-0.0656
25,CGCGACCA,0.0986

row,Sequence,PBM E-score
1,AGATTATA,-0.0147
2,ATTCTCCG,0.0526
3,AAACACGA,0.139
4,ATTTTGTA,0.155
5,CACACGAG,-0.0571
6,TCAGCGAA,0.021
7,CAGCTTCA,0.0676
8,ACTCGAAT,-0.0317
9,CGTAGCGA,-0.0894
10,CTAACGCA,0.138
11,GAGTCCAC,-0.183
12,ATTGCGGA,0.186
13,CCGCAAGG,-0.0627
14,ACGCAACG,0.0718
15,CCCCAGAC,-0.245
16,CACCGTAA,0.0876
17,ATATAGAC,0.154
18,CCCAGGTC,-0.3
19,ATTCTTAC,0.0732
20,CCTGCGCC,-0.179
21,ATTAGAGG,-0.0968
22,AGATGGAT,-0.141
23,AGTCGTTC,-0.0386
24,ACTCAAAA,0.0472
25,CACCTCGA,0.112

row,Sequence,PBM E-score
1,CATCTCTC,-0.131
2,AAAACTCG,0.185
3,TCACTGAA,-0.00153
4,CTACAGTA,0.0624
5,CCTCGACA,-0.0568
6,CTGTCAGA,0.0425
7,GACAATAC,0.184
8,CTGCAATC,0.11
9,TAAGATGA,0.0316
10,ATCCGTAG,-0.234
11,ATGGAGAA,0.0427
12,AGTCCGAC,-0.108
13,AGAACGGA,0.0388
14,AGCGTTAC,-0.13
15,GGAAATAC,0.161
16,AGTTTGAT,0.0851
17,CAGACACC,0.00559
18,CAACCCCA,0.0314
19,CAAAGTGA,0.108
20,GGCAACGA,0.212
21,ACGATACG,-0.0352
22,CGGTCTCC,-0.167
23,CGAAGGGA,-0.139
24,CCCGACCG,-0.328
25,CTAGTCCA,-0.0675

row,Sequence,PBM E-score
1,GAATCGGA,0.132
2,AGGCGGGC,-0.204
3,ACATGTCA,0.024
4,AATTAGAA,0.063
5,AGTAGTGG,0.0582
6,CGGGTCTA,0.0381
7,ACTGACCC,-0.232
8,AGAACTCA,0.00835
9,ATAAAGGC,-0.093
10,ACCCGTAC,-0.152
11,GTTATTAA,0.291
12,AACTGCAG,-0.0613
13,GGCGCACC,-0.0951
14,CCAAACCA,-0.071
15,AGACGTAT,-0.0747
16,AGTGATCA,0.0352
17,GCCCCGGA,-0.23
18,GCAACCCA,0.0297
19,ACACGCAA,0.198
20,TAGGATCA,0.0309
21,AACGCGAG,0.115
22,GCTGCAGA,0.147
23,GACACTTA,0.00183
24,AAACACTT,0.124
25,ATGTCAAA,0.165

row,Sequence,PBM E-score
1,AGTCTTCC,0.0794
2,CGGATGCA,-0.136
3,GGTGAGAC,-0.171
4,GAATTTGC,0.0976
5,CCCCGTCA,-0.195
6,ACGTATAA,0.148
7,ACCCCTAG,-0.192
8,ATTCCAGC,0.0244
9,CGACAATC,-0.0628
10,ACTAAAGT,0.0907
11,AGGAAAGC,-0.143
12,ATAGGCGC,0.0733
13,GAACTCAC,-0.0254
14,CTTGAAGC,0.056
15,CACCGTGC,0.161
16,CCGCGGAA,0.168
17,CCCGGACC,-0.234
18,GCCGTGCC,-0.0494
19,TCAGTACA,0.0479
20,CTCTGACA,0.0983
21,AATACCGT,0.0489
22,CTACGAAA,0.0242

# At a glance, part of the list above:
row,Sequence,PBM E-score
16,CCGCGGAA,0.168
17,CCCGGACC,-0.234
18,GCCGTGCC,-0.0494
19,TCAGTACA,0.0479
20,CTCTGACA,0.0983
21,AATACCGT,0.0489
